Results on 1 compound are retold here after ChEMBL document CHEMBL1777782, “Indole 5-carboxamide Thumb Pocket I inhibitors of HCV NS5B polymerase with nanomolar potency in cell-based subgenomic replicons (part 2): central amino acid linker and right-hand-side SAR studies” (Bioorg Med Chem Lett, 2011).

A short description of data set [1]: Permeability across apical to basolateral side in human Caco2 cells. As to conditions: Caco-2.
Data set [2] is described as follows: Selectivity ratio for polio virus RNA-dependent RNA polymerase to HCV 1b NS5B RNA dependent RNA polymerase.
Data set [3] is described as follows: Selectivity ratio for mammalian DNA-dependent RNA polymerase II to HCV 1b NS5B RNA dependent RNA polymerase.
Another data set is described as follows: physchem. As to conditions: buffer, pH 7.2.

Converted amounts (≈) assume the structure as drawn. Some results are limits rather than exact numbers.

As for `Cc1c(C(=O)O)sc2ccc(NC(=O)[C@]3(NC(=O)c4ccc5c(C6CCCCC6)c(-c6ccccn6)n(C)c5c4)CCCNC3)cc12`, the apparent permeability from apical to basolateral (Papp A→B) in data set [1] is < 0.1 ×10⁻⁶ cm/s. In addition, the Ratio in data set [2] and in data set [3] was > 150 throughout. The compound also had a thermodynamic solubility at 24 h in the data set “physchem” of 1 µg/mL (≈ 1.54 µM).

The term Papp A→B denotes the apparent permeability from the apical to the basolateral side of a cell layer. A high value points to ready permeation. As usually defined, the thermodynamic solubility is solubility found after equilibrating the solid with the medium.
